No constants are given. Whether binding was seen depends on the method and setting. Binding seen in cells or lysates may run through a third protein. Some entries that bind do so weakly or less than the wild type.
Legend:
[1] = target: von Hippel-Lindau (VHL) protein (human (endogenous in HCCLM3 and Bel-7402)) (UniProt P40337); test: co-IP; Bel-7402 cells, in the presence of 10 mM MG132; NP40 lysate immunoprecipitated with anti-VHL antibodies (4°C overnight, protein A + G Sepharose beads), western blot for UBE2S
[2] = target: Ubiquitin-conjugating enzyme E2S (UBE2S) (human) (UniProt Q16763); test: co-IP; HCCLM3 cells transfected with the UBE2S plasmid, 12 h with 10 mM MG132; NP40 lysate immunoprecipitated with anti-UBE2S antibodies (4°C overnight, protein A + G Sepharose beads), western blot for VHL

Chains of the proteins cited; added tags and fusions are not shown. Lines headed by an entry give the natural chain unless they say otherwise; changes in a name come on top.
UniProt P40337: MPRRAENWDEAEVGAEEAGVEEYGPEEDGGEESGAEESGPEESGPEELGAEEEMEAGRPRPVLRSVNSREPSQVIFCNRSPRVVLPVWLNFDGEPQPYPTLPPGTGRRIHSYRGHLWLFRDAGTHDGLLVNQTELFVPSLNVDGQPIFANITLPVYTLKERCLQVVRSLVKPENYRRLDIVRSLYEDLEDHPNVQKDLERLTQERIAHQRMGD
UniProt Q16763: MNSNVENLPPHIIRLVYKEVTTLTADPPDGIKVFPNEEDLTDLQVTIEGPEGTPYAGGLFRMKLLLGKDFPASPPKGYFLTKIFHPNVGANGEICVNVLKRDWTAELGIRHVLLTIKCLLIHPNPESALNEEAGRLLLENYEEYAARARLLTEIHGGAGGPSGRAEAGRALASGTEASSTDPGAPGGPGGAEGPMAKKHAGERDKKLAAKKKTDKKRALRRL

binding [1]	binding [2]	Substance
binds	–	Ubiquitin-conjugating enzyme E2S (UBE2S) (from UniProt Q16763 1-222)
–	binds	von Hippel-Lindau (VHL) protein (from UniProt P40337 1-213)

— PMC10523983
